Compound in this assay: Nc1nc2c(ncn2[C@@H]2O[C@H](COP(=O)(O)OP(=O)(O)OP(=O)(O)O)[C@@H](O)[C@H]2O)c(=O)[nH]1 [guanosine triphosphate]
Description: NP40-soluble protein abundance relative to vehicle (solubility fold change) (ratio); higher = more soluble protein in presence of GTP. The protocol:
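Solubility proteome profiling in Jurkat crude lysate. Lysate was treated with Mg-GTP (0.1-10 mM) for 10 min at room temperature and 3 min at 37 °C, then solubilised with 0.8% NP40 and benzonase, followed by ultracentrifugation. Proteins were quantified by TMT10 LC-MS/MS; the value is the NP40-soluble abundance relative to the NP40-processed vehicle, from 3 independent experiments.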

Protein sequences, listed by entry. Tags and fused reporters are not part of them. Lines headed by an entry give the natural chain unless they say otherwise; changes in a name come on top.
UniProt O60231: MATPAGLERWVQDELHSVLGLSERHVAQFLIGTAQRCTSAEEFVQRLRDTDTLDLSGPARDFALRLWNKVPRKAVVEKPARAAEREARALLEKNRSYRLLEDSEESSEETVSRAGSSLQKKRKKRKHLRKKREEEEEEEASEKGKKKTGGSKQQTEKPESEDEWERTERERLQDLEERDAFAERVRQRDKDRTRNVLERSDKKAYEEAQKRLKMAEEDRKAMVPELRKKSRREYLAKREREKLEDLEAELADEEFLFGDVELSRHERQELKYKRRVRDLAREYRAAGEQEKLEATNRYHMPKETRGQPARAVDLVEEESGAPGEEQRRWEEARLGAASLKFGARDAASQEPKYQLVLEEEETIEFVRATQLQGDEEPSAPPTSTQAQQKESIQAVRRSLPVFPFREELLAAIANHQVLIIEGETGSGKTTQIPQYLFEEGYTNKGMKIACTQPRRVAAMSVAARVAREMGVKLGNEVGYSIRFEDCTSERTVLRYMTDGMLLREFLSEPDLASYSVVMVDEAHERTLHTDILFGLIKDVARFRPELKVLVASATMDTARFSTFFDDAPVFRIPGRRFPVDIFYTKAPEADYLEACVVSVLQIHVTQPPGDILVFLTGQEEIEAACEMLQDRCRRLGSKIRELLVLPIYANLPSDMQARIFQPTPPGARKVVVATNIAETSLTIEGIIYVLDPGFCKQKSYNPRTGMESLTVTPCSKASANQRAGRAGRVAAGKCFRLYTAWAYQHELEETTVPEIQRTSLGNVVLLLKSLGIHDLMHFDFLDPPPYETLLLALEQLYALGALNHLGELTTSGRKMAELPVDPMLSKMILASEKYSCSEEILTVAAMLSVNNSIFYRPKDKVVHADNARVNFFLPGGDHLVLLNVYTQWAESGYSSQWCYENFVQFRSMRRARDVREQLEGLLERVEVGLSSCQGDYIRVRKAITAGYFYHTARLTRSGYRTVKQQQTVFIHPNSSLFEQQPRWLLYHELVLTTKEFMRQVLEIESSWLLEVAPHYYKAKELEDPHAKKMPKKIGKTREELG
UniProt P28340: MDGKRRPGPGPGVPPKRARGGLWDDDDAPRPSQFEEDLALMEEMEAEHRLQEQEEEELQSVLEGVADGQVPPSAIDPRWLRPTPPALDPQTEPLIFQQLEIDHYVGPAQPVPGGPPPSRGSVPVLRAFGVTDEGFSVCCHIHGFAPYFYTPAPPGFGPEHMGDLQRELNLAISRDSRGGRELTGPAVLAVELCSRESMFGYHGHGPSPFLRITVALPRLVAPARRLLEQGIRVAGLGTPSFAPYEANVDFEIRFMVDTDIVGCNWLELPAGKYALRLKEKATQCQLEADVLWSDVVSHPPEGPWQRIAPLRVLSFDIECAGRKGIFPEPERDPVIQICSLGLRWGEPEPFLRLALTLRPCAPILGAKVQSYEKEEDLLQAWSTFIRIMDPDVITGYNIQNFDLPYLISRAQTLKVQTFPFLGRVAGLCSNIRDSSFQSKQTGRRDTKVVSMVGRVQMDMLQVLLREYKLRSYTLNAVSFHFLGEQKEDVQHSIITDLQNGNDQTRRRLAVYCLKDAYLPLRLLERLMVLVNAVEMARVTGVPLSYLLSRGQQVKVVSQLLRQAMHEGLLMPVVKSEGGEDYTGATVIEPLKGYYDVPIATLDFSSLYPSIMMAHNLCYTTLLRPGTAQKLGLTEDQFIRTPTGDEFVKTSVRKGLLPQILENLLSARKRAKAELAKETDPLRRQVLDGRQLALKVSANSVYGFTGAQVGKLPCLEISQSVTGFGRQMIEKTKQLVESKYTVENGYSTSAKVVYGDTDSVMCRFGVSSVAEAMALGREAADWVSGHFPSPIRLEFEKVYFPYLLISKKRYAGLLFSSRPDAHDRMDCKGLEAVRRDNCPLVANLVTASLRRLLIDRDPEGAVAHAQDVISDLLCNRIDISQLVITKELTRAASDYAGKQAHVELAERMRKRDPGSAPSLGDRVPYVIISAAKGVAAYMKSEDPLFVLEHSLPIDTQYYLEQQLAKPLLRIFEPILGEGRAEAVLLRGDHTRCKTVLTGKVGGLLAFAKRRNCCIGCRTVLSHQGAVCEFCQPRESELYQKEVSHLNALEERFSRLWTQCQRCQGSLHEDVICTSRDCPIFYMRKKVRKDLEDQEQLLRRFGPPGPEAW
UniProt O14925: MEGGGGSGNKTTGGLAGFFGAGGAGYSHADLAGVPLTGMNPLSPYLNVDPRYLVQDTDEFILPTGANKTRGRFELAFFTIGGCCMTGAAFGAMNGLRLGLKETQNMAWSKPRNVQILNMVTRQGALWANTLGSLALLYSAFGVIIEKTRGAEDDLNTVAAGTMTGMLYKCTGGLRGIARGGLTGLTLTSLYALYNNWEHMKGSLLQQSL
UniProt O15127: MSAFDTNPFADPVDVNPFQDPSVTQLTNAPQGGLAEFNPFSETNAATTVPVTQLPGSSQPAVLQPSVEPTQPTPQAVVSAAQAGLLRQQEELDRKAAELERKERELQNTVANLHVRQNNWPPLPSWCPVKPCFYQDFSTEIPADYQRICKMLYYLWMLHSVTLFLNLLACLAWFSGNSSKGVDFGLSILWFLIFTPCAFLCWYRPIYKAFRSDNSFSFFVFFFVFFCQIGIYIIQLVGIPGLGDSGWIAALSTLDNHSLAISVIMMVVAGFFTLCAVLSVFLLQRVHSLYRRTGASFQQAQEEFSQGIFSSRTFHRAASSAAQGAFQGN
UniProt O43242, whole entry: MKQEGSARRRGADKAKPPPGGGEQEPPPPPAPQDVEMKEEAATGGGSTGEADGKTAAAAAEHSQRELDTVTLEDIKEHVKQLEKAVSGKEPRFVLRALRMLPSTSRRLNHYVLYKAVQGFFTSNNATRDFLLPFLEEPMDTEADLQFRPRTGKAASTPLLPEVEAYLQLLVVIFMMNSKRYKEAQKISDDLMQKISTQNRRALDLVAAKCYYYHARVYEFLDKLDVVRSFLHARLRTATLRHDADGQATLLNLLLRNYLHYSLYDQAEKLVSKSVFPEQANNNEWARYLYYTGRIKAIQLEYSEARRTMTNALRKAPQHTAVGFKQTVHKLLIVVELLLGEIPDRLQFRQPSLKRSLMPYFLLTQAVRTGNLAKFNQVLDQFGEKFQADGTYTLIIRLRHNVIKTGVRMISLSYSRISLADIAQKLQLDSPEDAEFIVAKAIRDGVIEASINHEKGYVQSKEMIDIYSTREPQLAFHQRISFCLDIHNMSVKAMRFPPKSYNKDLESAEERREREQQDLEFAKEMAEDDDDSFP

± gives the standard deviation of the averaged measurements. The list shows a part of the results.

In the case of DHX16 (UniProt O60231), the NP40-soluble protein abundance reads like this: (concentration: 0.1mM) 0.986 ± 0.029; (concentration: 0.5mM) 1.01 ± 0.044; (concentration: 1mM) 1.02 ± 0.039; (concentration: 2mM) 0.994 ± 0.033; (concentration: 4mM) 0.995 ± 0.025; (concentration: 6mM) 0.977 ± 0.029. The NP40-soluble protein abundance runs as follows: (concentration: 8mM) 0.993 ± 0.058; (concentration: 10mM) 1 ± 0.037.
As to “M0R2B7 and related entries (UniProt P28340)”, the NP40-soluble protein abundance was 1.08 ± 0.092 (concentration: 0.1mM); 1.08 ± 0.12 (concentration: 0.5mM); 0.942 ± 0.077 (concentration: 1mM); 0.973 ± 0.15 (concentration: 2mM); 0.966 ± 0.099 (concentration: 4mM); 0.947 ± 0.1 (concentration: 6mM). Further, the NP40-soluble protein abundance reads like this: (concentration: 8mM) 0.903 ± 0.045; (concentration: 10mM) 0.876 ± 0.092.
As to TIMM23 (UniProt O14925), the NP40-soluble protein abundance worked out at 0.979 ± 0.016 (concentration: 0.1mM); 0.902 ± 0.037 (concentration: 0.5mM); 0.856 ± 0.016 (concentration: 1mM); 0.892 ± 0.02 (concentration: 2mM); 0.904 ± 0.043 (concentration: 4mM); 0.877 ± 0.026 (concentration: 6mM). The NP40-soluble protein abundance (concentration: 8mM) amounted to 0.838 ± 0.046 and the NP40-soluble protein abundance (concentration: 10mM) came out at 0.898 ± 0.042.
As to SCAMP2 (UniProt O15127), the NP40-soluble protein abundance by setting is: (concentration: 0.1mM) 1 ± 0.05; (concentration: 0.5mM) 0.984 ± 0.059; (concentration: 1mM) 1.01 ± 0.092; (concentration: 2mM) 0.935 ± 0.076; (concentration: 4mM) 0.975 ± 0.12; (concentration: 6mM) 0.971 ± 0.11. For the same target, the NP40-soluble protein abundance (concentration: 8mM) amounted to 0.958 ± 0.046 and the NP40-soluble protein abundance (concentration: 10mM) stood at 0.971 ± 0.088.
For the target PSMD3 (UniProt O43242), the NP40-soluble protein abundance by setting is: (concentration: 0.1mM) 1.06 ± 0.076; (concentration: 0.5mM) 1.09 ± 0.14; (concentration: 1mM) 1.02 ± 0.11; (concentration: 2mM) 1.11 ± 0.2; (concentration: 4mM) 1.09 ± 0.18; (concentration: 6mM) 1.09 ± 0.18. In addition, the NP40-soluble protein abundance reads like this: (concentration: 8mM) 1.07 ± 0.15; (concentration: 10mM) 1.03 ± 0.16.
